PubChem BioAssay AID504793 – Drosophila RNAi Screening Center | 2011

- Screen: 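Knock-downs allowing continued mitosis even though DNA is damaged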 (primary screen)
- Cells: Drosophila S2R+ cells
- Reagent: long dsRNA against Drosophila genes, about 0.25 µg dsRNA per well
- Timing: 4 days of dsRNA, then 4 hours of drug before read-out
- Treatment: doxorubicin 0.5 µM for 4 hours to cause double-strand breaks, in cells also given a low, harmless dose of dsRNA against nbs to sensitise the assay
- Detection: 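Mitotic index as the number of phospho-histone H3-positive cells in each well following doxorubicin, given as raw counts without normalisation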
- Direction: mitotic cells: higher = more cells in mitosis, weaker G2 arrest
- Rule for the call: 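a call needs confirmation in secondary tests, with other dsRNAs and a check of mitotic timing without damage, not just a high primary count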
- Meaning of the calls: active = confirmed in follow-up tests; inactive = not confirmed
The screen tested about 23,000 reagents; below is an unselected part of those with a known target gene and a result. Of all reagents, 62 (0.27%) are marked active. 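Calls come from follow-up tests whose scores are not deposited, so confirmed genes may have low counts here; counts are not normalised per plate.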 Raw values vary from plate to plate and are shown uncorrected. The numbers tell different reagents against one gene apart. Reagent sequences are not shown.

Gene | reagent | mitotic cells, replicate 1 | call
Gos28 (GeneID 248102) | 1 | 6 | inactive
Gos28 (GeneID 248102) | 2 | 11 | inactive
CG12464 (GeneID 36516) | 1 | 4 | inactive
Abca3 (GeneID 33103) | 1 | 7 | inactive
Usp30 (GeneID 31519) | 1 | 9 | inactive
Usp30 (GeneID 31519) | 2 | 7 | inactive
NimA (GeneID 318930) | 1 | 8 | inactive
NimA (GeneID 318930) | 2 | 5 | inactive
NimA (GeneID 318930) | 3 | 8 | inactive
NimA (GeneID 318930) | 4 | 5 | inactive
Mtch (GeneID 38026) | 1 | 2 | inactive
Ocho (GeneID 39621) | 1 | 4 | inactive
Ocho (GeneID 39621) | 2 | 2 | inactive
CG4194 (GeneID 31173) | 1 | 6 | inactive
RpL3 (GeneID 41347) | 1 | 10 | inactive
CG17834 (GeneID 34191) | 1 | 4 | inactive
CG17834 (GeneID 34191) | 2 | 5 | inactive
CG34436 (GeneID 5740743) | 1 | 10 | inactive
Zip99C (GeneID 43533) | 1 | 9 | inactive
CG15034 (GeneID 31670) | 1 | 16 | inactive
CG33322 (GeneID 2768932) | 1 | 4 | inactive
lncRNA:sphinx (GeneID 4379815) | 1 | 9 | inactive
l(1)G0320 (GeneID 326234) | 1 | 7 | inactive
Ccdc58 (GeneID 40159) | 1 | 10 | inactive
CG6005 (GeneID 42279) | 1 | 8 | inactive
apn (GeneID 41631) | 1 | 4 | inactive
CG30076 (GeneID 246438) | 1 | 5 | inactive
CG30076 (GeneID 246438) | 2 | 11 | inactive
GstD1 (GeneID 41503) | 1 | 8 | inactive
GstD1 (GeneID 41503) | 2 | 5 | inactive
pncr004:X (retired record) (GeneID 3772236) | 1 | 9 | inactive
Gprk2 (GeneID 49045) | 1 | 7 | inactive
Gprk2 (GeneID 49045) | 2 | 17 | inactive
CG8206 (GeneID 32516) | 1 | 8 | inactive
Nak (GeneID 35154) | 1 | 4 | inactive
Nak (GeneID 35154) | 2 | 6 | inactive
CG13280 (GeneID 35015) | 1 | 3 | inactive
CycY (GeneID 34593) | 1 | 7 | inactive
CycY (GeneID 34593) | 2 | 4 | inactive
CG11656 (GeneID 41600) | 1 | 3 | inactive
CG11656 (GeneID 41600) | 2 | 1 | inactive
Wee1 (GeneID 33965) | 1 | 7 | inactive
Wee1 (GeneID 33965) | 2 | 13 | inactive
Cyp4g1 (GeneID 30986) | 1 | 5 | inactive
Cyp4g1 (GeneID 30986) | 2 | 2 | inactive

Laid out differently: results already given
Wee1 (GeneID 33965) #2: mitotic cells, replicate 1 = 13; call = inactive
Cyp4g1 (GeneID 30986) #1: mitotic cells, replicate 1 = 5; call = inactive
Cyp4g1 (GeneID 30986) #2: mitotic cells, replicate 1 = 2; call = inactive
